No constants are given. Whether binding was seen depends on the method and setting. Binding seen in cells or lysates may run through a third protein. Some results given as binding are weak or reduced against the parent protein; the word gives no strength. Tags and fused reporters may be left off the sequences shown.
Target: T1, FLOT1 (split-luciferase fusion, LCI) (Arabidopsis thaliana) (UniProt Q501E6)
T1 sequence: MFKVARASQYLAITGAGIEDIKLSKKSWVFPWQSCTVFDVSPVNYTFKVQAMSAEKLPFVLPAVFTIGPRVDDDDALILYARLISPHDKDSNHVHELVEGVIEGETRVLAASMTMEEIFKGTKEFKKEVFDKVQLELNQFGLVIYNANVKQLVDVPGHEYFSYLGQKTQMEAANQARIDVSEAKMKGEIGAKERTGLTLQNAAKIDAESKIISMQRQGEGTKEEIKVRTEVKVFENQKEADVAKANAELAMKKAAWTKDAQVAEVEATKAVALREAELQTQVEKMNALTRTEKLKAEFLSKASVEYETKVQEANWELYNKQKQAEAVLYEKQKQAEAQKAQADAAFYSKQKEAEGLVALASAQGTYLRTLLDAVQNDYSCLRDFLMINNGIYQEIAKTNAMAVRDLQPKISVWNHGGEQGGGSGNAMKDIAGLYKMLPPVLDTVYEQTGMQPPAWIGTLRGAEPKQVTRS
Test: split reporter

Amino acid sequences for entries named in this document (tags omitted). Residues count along the entry.
UniProt Q9FL28, residues 24-1173: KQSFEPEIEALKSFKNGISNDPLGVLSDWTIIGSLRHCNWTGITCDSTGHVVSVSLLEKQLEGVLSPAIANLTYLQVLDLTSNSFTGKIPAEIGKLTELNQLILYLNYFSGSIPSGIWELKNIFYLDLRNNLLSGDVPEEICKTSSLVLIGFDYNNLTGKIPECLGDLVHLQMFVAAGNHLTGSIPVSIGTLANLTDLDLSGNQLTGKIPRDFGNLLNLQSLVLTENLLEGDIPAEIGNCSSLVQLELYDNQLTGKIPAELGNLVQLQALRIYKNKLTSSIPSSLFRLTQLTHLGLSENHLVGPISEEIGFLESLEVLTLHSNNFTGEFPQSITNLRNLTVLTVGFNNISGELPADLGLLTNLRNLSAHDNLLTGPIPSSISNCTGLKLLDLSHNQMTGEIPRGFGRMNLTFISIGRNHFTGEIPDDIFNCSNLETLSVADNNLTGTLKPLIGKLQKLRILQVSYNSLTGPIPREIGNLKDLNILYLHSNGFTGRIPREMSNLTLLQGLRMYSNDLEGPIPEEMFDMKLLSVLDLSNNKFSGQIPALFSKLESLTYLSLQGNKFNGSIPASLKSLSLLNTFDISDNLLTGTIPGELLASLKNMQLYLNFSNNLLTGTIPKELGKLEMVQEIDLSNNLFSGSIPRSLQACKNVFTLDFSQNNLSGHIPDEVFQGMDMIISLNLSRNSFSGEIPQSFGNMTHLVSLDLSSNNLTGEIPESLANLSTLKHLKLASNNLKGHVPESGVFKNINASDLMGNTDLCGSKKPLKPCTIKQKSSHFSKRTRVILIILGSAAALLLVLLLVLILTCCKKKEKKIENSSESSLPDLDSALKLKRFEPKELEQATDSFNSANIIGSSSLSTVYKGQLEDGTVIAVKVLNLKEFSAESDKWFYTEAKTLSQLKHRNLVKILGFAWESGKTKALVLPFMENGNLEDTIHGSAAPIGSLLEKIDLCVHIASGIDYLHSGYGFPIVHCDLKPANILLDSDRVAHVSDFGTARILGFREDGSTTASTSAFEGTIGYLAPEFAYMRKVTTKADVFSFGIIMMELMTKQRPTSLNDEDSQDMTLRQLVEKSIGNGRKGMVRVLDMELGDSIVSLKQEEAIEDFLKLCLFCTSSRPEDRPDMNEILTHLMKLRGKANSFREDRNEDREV
UniProt Q9LSR8, residues 22-766: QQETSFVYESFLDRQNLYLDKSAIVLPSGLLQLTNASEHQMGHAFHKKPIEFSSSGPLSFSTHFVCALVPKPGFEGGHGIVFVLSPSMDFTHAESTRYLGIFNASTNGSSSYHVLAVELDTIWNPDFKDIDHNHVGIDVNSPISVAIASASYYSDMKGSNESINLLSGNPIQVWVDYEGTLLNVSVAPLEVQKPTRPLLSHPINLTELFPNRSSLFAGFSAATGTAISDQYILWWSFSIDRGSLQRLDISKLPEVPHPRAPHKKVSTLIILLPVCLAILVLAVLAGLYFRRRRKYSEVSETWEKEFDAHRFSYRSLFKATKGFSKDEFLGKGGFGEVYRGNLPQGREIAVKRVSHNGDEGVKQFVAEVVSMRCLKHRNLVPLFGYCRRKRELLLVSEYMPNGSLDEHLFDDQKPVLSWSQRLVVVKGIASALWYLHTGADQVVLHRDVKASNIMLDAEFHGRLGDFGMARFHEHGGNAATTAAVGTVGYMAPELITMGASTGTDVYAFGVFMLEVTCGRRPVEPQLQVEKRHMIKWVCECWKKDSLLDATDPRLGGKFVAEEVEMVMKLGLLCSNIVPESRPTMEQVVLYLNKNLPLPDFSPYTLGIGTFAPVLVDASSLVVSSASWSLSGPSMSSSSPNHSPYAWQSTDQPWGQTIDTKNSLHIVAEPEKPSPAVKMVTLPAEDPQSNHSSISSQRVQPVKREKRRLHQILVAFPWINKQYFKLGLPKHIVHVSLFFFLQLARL

Substance | binding
FLS2 (split-luciferase fusion, LCI) (from UniProt Q9FL28 24-1173) (receptor) | binds
P2K1 (split-luciferase fusion, LCI) (from UniProt Q9LSR8 22-766) (receptor) | binds
